# These are yes or no findings as the source states them, for the method shown. In cells and extracts the contact can be indirect. These calls come from enrichment with a bait or labelling near it, and not all partners need be listed.
# Protein sequences, listed by entry. Tags and fused reporters are not part of them. Lines headed by an entry give the natural chain unless they say otherwise; changes in a name come on top. Chains listed by the source or under a name are the forms on record and can include a tag or linker. Residues count along the entry.
# WT PD-L1 (programmed death ligand 1) tagged with GFP (Q9EP73, residues 19-290): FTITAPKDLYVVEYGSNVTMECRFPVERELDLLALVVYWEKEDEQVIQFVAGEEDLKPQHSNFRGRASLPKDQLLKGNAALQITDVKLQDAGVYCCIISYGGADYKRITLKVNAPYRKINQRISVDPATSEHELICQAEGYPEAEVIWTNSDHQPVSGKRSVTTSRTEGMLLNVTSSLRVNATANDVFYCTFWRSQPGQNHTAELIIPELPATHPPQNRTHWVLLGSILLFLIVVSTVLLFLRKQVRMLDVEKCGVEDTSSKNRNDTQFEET
# PD-L1 with the TSS-AAA mutation in the cytoplasmic domain, tagged with GFP (Q9EP73, form named): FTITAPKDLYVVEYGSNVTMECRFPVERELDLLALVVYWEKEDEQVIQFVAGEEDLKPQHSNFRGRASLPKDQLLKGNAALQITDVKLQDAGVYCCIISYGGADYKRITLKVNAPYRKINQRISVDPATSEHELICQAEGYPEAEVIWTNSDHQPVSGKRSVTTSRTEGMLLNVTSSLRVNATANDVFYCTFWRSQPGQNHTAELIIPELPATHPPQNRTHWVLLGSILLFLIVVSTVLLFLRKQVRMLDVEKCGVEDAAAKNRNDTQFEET
# UniProt Q6P542: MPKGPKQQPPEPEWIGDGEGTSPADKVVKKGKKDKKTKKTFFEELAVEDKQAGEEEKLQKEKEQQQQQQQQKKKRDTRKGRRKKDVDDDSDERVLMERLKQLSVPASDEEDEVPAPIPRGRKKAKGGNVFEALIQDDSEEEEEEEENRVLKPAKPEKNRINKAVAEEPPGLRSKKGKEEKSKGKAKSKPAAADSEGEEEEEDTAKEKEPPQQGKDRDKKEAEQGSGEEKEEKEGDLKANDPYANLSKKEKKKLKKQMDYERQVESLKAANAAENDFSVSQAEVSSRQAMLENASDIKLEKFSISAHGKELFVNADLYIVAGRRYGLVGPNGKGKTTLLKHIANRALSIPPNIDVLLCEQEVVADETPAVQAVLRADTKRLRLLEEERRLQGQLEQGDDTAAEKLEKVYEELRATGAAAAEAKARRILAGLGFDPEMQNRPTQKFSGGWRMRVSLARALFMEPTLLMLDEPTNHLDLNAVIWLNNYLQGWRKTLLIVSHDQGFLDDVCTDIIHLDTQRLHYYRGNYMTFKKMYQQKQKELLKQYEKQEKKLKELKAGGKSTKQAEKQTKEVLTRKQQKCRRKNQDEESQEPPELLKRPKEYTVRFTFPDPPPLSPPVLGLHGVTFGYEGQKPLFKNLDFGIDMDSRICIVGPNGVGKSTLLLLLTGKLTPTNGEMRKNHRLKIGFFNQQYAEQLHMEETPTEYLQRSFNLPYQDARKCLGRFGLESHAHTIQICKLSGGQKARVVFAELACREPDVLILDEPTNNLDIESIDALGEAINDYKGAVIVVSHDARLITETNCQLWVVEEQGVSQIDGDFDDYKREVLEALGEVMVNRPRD
# UniProt Q3UMF0: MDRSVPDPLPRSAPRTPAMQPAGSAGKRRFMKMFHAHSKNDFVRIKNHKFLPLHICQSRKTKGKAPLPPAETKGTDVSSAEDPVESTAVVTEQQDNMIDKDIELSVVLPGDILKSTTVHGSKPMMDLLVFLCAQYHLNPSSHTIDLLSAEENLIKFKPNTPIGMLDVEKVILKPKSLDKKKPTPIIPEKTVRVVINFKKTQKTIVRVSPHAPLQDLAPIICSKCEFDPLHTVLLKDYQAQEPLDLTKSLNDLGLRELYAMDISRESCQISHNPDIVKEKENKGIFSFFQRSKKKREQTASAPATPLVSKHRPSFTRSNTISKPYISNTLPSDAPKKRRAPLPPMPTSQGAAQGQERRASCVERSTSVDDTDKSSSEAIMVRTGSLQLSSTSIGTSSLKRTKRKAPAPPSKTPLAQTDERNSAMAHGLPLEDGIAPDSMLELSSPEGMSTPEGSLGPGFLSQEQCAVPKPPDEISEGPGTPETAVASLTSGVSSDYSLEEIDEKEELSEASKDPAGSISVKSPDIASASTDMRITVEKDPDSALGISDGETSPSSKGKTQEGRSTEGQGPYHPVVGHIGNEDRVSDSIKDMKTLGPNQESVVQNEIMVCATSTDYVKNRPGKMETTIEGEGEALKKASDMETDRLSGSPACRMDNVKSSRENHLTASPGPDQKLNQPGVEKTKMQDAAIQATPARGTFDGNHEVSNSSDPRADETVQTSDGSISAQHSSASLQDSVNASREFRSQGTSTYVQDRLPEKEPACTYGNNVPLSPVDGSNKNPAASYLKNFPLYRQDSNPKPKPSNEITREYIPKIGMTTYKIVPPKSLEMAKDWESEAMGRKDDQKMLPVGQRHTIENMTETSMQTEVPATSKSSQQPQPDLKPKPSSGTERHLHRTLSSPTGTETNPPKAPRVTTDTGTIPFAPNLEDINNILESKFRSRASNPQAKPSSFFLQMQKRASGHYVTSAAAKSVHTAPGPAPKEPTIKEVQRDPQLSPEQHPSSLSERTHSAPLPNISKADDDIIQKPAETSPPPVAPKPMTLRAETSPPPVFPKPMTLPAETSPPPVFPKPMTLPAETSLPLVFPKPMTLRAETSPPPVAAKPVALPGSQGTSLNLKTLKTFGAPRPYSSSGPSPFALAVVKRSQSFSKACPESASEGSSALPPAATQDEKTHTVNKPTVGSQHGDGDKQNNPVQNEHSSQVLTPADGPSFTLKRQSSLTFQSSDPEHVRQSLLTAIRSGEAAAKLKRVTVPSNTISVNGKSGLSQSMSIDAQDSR
# UniProt Q80YR5: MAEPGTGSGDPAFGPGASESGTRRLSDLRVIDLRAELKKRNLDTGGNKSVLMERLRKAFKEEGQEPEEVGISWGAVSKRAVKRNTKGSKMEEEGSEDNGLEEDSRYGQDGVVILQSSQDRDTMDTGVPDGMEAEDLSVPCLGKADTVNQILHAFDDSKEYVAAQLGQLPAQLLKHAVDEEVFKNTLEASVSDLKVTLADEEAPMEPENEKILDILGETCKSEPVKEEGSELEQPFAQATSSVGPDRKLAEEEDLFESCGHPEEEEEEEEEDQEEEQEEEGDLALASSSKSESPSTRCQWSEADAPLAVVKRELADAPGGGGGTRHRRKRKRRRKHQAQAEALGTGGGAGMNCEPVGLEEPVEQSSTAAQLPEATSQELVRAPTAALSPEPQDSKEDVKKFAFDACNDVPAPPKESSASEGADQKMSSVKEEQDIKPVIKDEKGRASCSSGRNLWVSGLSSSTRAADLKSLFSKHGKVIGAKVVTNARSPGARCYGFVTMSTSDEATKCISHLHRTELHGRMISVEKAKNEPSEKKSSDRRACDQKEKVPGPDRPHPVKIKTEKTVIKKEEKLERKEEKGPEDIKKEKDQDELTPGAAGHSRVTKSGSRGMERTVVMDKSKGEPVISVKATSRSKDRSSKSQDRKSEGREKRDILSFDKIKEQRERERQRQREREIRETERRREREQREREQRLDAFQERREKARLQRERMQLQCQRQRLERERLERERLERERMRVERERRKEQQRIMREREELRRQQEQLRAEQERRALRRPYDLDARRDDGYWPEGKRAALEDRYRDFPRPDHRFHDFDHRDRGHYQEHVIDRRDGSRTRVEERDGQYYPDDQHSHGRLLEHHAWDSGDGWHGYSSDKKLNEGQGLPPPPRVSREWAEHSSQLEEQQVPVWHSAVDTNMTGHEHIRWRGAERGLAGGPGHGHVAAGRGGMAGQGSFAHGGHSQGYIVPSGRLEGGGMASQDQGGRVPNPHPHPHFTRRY
# UniProt Q3UPH7: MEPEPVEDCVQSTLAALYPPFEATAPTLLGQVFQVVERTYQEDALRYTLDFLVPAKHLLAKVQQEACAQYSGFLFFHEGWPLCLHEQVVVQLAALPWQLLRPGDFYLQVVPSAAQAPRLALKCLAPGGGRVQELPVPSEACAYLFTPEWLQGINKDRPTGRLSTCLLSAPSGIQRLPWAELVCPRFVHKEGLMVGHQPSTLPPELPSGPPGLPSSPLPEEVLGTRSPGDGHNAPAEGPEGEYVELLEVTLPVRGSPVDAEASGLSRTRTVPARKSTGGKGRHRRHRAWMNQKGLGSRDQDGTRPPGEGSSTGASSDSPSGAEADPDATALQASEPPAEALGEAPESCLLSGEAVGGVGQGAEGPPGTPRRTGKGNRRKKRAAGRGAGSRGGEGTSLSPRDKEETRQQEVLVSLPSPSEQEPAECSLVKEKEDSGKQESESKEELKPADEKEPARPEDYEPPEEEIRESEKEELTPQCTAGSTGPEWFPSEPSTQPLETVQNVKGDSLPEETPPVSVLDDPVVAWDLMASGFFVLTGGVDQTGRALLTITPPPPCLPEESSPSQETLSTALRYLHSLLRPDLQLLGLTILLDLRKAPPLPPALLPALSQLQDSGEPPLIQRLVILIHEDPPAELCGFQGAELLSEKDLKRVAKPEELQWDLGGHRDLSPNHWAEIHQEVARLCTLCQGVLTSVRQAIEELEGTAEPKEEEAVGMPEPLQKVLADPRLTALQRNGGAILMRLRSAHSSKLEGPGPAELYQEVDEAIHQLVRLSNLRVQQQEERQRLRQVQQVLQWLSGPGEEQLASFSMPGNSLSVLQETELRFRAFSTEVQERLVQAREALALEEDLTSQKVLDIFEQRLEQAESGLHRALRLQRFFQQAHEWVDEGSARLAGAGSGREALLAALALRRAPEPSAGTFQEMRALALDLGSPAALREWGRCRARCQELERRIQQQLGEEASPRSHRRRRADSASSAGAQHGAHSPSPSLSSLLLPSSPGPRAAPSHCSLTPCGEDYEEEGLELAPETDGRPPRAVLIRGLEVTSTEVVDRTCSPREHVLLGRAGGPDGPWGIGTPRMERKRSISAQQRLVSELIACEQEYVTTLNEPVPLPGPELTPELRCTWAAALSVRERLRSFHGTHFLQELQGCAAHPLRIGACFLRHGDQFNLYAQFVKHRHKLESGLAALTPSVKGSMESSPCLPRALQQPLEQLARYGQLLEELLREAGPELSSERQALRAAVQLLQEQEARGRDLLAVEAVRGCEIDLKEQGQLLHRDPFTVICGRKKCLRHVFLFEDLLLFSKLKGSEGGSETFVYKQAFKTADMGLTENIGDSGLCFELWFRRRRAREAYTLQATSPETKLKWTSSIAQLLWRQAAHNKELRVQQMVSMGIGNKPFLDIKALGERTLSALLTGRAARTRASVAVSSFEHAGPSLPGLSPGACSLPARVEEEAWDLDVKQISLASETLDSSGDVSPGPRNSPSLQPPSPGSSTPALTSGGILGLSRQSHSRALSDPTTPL
# B1: N-Alpha-Acetyltransferase 15, NatA Auxiliary Subunit, phosphorylated (protein, UniProt Q80UM3 1-865)
# chain: MPAVSLPPKENALFKRILRCYEHKQYRNGLKFCKQILSNPKFAEHGETLAMKGLTLNCLGKKEEAYELVRRGLRNDLKSHVCWHVYGLLQRSDKKYDEAIKCYRNALKWDKDNLQILRDLSLLQIQMRDLEGYRETRYQLLQLRPAQRASWIGYAIAYHLLEDYEMAAKILEEFRKTQQTSPDKVDYEYSELLLYQNQVLREAGLYREALEHLCTYEKQICDKLAVEETKGELLLQLCRLEDAADVYRGLQERNPGNWAYYKGLEKALKPANMLERLKIYEEAWTKYPRGLVPRRLPLNFLSGEKFKECLDRFLRMNFSKGCPPVFNTLRSLYRDKEKVAIVEELVVGYETSLKSCRLFNPNDDGKEEPPTTLLWVQYYLAQHYDKIGQPSIALEYINTAIESTPTLIELFLVKAKIYKHAGNIKEAARWMDEAQALDTADRFINSKCAKYVLKANLIKEAEEMCSKFTREGTSAVENLNEMQCMWFQTECAQAYKAMNKFGEALKKCHEIERHFIEITDDQFDFHTYCMRKITLRSYVDLLKLEDVLRQHPFYFKAARIAIEIYLKLHDNPLTDENKEHEADTANMSDKELKKLRNKQRRAQKKAQIEEEKKNAEKEKQQRNQKKKKDDDDEEIGGPKEELIPEKLAKVETPLEEAIKFLTPLKNLVKNKIETHLFAFEIYFRKEKFLLMLQSVKRAFAIDSGHPWLHECMIRLFHSVCESKDLPETVRTVLKQEMNRLFGATNPKNFNETFLKRNSDSLPHRLSAAKMVYYLDSSSQKRAIELATTLDGSLTNRNLQTCMEVLEALCDGSLGDCKEAAEAYRASCHKLFPYALAFMPPGYEEDMKITVNGDSSAETEELANEI
# modifications: phosphorylated (site not given)
# B2: Solute Carrier Family 25 Member 3 (protein, UniProt Q8VEM8 46-357)
# chain: AVEEYSCEFGSMKYYALCGFGGVLSCGLTHTAVVPLDLVKCRMQVDPQKYKGIFNGFSITLKEDGVRGLAKGWAPTLIGYSMQGLCKFGFYEVFKALYSNILGEENTYLWRTSLYLASSASAEFFADIALAPMEAAKVRIQTQPGYANTLREAVPKMYKEEGLNAFYKGVAPLWMRQIPYTMMKFACFERTVEALYKFVVPKPRSECTKAEQLVVTFVAGYIAGVFCAIVSHPADSVVSVLNKEKGSTASQVLQRLGFRGVWKGLFARIIMIGTLTALQWFIYDSVKVYFRLPRPPPPEMPESLKKKLGLTE
# B3: ARF GTPase-activating protein GIT2 (protein, UniProt Q9JLQ2 1-708)
# chain: MSKRLRSSDVCADCNGPDPSWASVNRGTFICDECCSVHRSLGRHISQVRHLKHTAWPPTLLQMVETLYNNGANSIWEHSLLDPASIMSGRRKANPQDKVHPNKAEFIRAKYQMLAFVHRLPCREDDSVTAKDLSKQLHSSVRTGNLETCLRLLSLGAQANFFHPEKGSTPLHVASKAGQILQAELLAVYGADPGTQDSSGKTPVDYARQGGHHELAERLIEIQYELTDRLAFYLCGRKPDHKSGQHFLIPQRADSLDLSELAKAAKKKLQSLSNHLFEELAMDVYDEVDRRETDAVWLATQNHSTLVTETTVVPFLPVNPEYSSTRNQGRQKLARFNAHEFATLVIDILSDAKRRQQGSPLSRSKDNVELILRTVSTQHSTESQDNDQPDYDSVASDEDTDVETRASKANRQKLQTLQSENSSLRRQATASACQVQTGSDHKDTASHSSLKRRPSARGSRPMSMYETGSGQKPYLPMGEASHPEESRTRLQPFPTHIGRSALVTSSSSLPSFPSTLSWSRDESARRASRLEKQNSTPESDYDNTACDPEPDDTGSTRKGRQRSMLWQGDGLLPDTAEPHSVPSPTLPSTEDVIRKTEQITKNIQELLRAAQENKHDSYIPCSERIHVAVTEMAALFPKKPKSDTVRTSLRLLTSSAYRLQSECRKALPGDSSLPTDVQLVTQQVIQCAYDIAKAAKQLVTITTKENSS
# B4: Arf-GAP with coiled-coil, ANK repeat and PH domain-containing protein (ACAP2) (protein, UniProt Q6ZQK5 1-770)
# chain: MKMTVDFEECLKDSPRFRAALEEVEGDVAELELKLDKLVKLCIAMIDTGKAFCVANKQFMNGIRDLAQYSSNDAVVETSLTKFSDSLQEMINFHTILFDQTQRSIKAQLQNFVKEDLRKFKDAKKQFEKVSEEKENALVKNAQVQRNKQHEVEEAANILTATRKCFRHIALDYVLQINVLQSKRRSEILKSMLSFMYAHLAFFHQGYDLFSELGPYMKDLGAQLDRLVVDAAKEKREMEQKHSTIQQKDFSSDDSKLEYNVDAANGIVMEGYLFKRASNAFKTWNRRWFSIQNNQLVYQKKFKDSPTVVVEDLRLCTVKHCEDIERRFCFEVVSPTKSCMLQADSEKLRQAWIKAVQTSIATAYREKGDESEKLDKKSSPSTGSLDSGNESKEKLLKGESALQRVQCIPGNTSCCDCGLADPRWASINLGITLCIECSGIHRSLGVHFSKVRSLTLDTWEPELLKLMCELGNDVINRVYEAKLEKMGVKKPQPGQRQEKEAYIRAKYVERKFVDKYSALLSPSEQEKRIISKSCEDQRLSHARASVHTPVKSNDSGIQQCSEDGRESLPSTVSANSLYEPEGERQESSVFLDSKHLNPGLQLYRASYEKNLPKMAEALAHGADVNWANSDENQATPLIQAVLGGSLVTCEFLLQNGANVNQRDVQGRGPLHHATVLGHTGQVCLFLKRGANQHATDEEGKDPLSIAVEAANADIVTLLRLARMNEEMRESEGLYGQPGDETYQDIFRDFSQMASNNPEKLNRFQQDSQKF
# B5: Arf-GAP with Rho-GAP domain, ANK repeat and PH domain-containing protein 1 (protein, UniProt Q4LDD4 1-1452)
# chain: MAEGYDAALSVAEWLRALHLEQYTALFEQHGLVWATECQGLSDAGLLDMGMHLPGHRRRILAGLHRAHAPPVPLPRPAPRPVPMKRHIFRSPPVPVTPPEPPPTAGEDEGLPAAPPIPPRRSCLPPACFTPTSTAAPDPVLPPLPAKRHLVEPSVPPVPPRTGPPYPQASLLAKEELLLPSVSPRSQPEPAETPSTLLPAFPQGPLQPPSPPPCPPVIPPKPPRLLPEFDDSDYDDVPEEGPGAPASVMTKEEPLPSRVPRAVRVASLLSEGEELSGDDSEDDDDHAYEGIPNGGWPTSGLNPPLRSLIPDLPLHPMDELPGGPTPITPVIKAGWLDKNPPQGSYIYQKRWVRLDADYLRYFDSNKDAYSKRFVPVACICRVAPIGDQKFEVITNNRTFAFRAESDVERNEWMQALQQAVVEHRARFRLSSASVLGVRGSEQPDRAGSLELRGFKNKLYVAVTGDKVQLYKNLEEFHLGIGITFIDMNVGNVKEVDRRSFDLTTPYRIFSFSADSELEKEQWLEAMQGAIAEALSTSEVAERIWAAAPNRFCADCGAAQPDWASINLCVVICKRCAGEHRGLGAGVSKVRSLKMDRKVWTEALIQLFLHLGNGPGNHFWAANVPPSEALEPSSSPGARRYHLEAKYREGKYRRYHPLFGNQEELDKALCAAVTTTDLAETQALLGCGAGVSCFSGDPAAPTPLALAEQAGQTLQMEFLRNNQSTEVPRLDSVKPLEKHYSVTLPTVSHSGFLYKTASAGKPLQDRRAREEFSRRWCVLSDGVLSYYENERAVTPNGEIRASEIVCLAVSPLDTHGFEHTFEVYTEGERLYLFGLENAELAHEWVKCIAKAFVPPLAEDLLARDFERLGRLPCKAGLSLQQAQEGWFALTGSELRAVFPEGPWEEPLQLRKLQELSIQGDSENQVLVLVERRRTLYIQGERRLDFMAWLGVIQKAAASLGDTLSEQQLGDSDIPVIVYRCVDYITQCGLTSEGIYRKCGQTSKTQRLLDSLRQDARSVHLKEGEQHVDDVSSALKRFLRDLPDGLFTRAQRLAWLEASEIEDEEEKISRYRELLVHLPPVNRATVKALISHLYCVQCFSDTNQMNTHNLAIVFGPTLFQTDGQDYKAGKVVEDLINHYVVVFSVDEEELRKQREEVTAIVKMRVAGTASGTQHAGDFICTVYLEEKKVETEQHVKIPASMTAEELTLEILDRRNVSIREKDYWTCFEVNEKEEAERPLHFAEKVLPIVHGLGIDSHLVVKKYQSMEAMLLYLASRVGDTKHGMMKFREDRSLLGLGLPSGGFHDRYFILNSSCLRLYKEVRSQRPWSGAPETSHRPEKEWPVKSLKVYLGVKKKLRPPTCWGFTVVHETEKHEKQQWYLCCDTQMELREWFATFLSVQHDGLVWPSEPSRVSRAVPEVRMGSVSLIPLRGSENEMRRSVAAFTADPLSLLRHV
# B6: Perilipin 2 (protein, UniProt P43883 1-425)
# chain: MAAAVVDPQQSVVMRVANLPLVSSTYDLVSSAYVSTKDQYPYLRSVCEMAEKGVKTVTSAAMTSALPIIQKLEPQIAVANTYACKGLDRMEERLPILNQPTSEIVASARGAVTGAKDVVTTTMAGAKDSVASTVSGVVDKTKGAVTGSVERTKSVVNGSINTVLGMVQFMNSGVDNAITKSELLVDQYFPLTQEELEMEAKKVEGFDMVQKPSNYERLESLSTKLCSRAYHQALSRVKEAKQKSQETISQLHSTVHLIEFARKNMHSANQKIQGAQDKLYVSWVEWKRSIGYDDTDESHCVEHIESRTLAIARNLTQQLQTTCQTVLVNAQGLPQNIQDQAKHLGVMAGDIYSVFRNAASFKEVSDGVLTSSKGQLQKMKESLDEVMDYFVNNTPLNWLVGPFYPQSTEVNKASLKVQQSEVKAQ
# B7: DnaJ Heat Shock Protein Family (Hsp40) Member C7 (protein, UniProt Q9QYI3 1-494)
# chain: MAATAECDVVMAATEPELLEDEDAKREAESFKEQGNAYYAKKDYNEAYNYYTKAIDMCPNNASYYGNRAATLMMLGRFREALGDAQQSVRLDDSFVRGHLREGKCHLSLGNAMAACRSFQRALELDHKNAQAQQEFKNANAVMEYEKIAEVDFEKRDFRKVVFCMDRALEFAPACHRFKILKAECLAMLGRYPEAQFVASDILRMDSTNADALYVRGLCLYYEDCIEKAVQFFVQALRMAPDHEKACVACRNAKALKAKKEDGNKAFKEGNYKLAYELYTEALGIDPNNIKTNAKLYCNRGTVNSKLRQLEDAIEDCTNAVKLDDTYIKAYLRRAQCYMDTEQFEEAVRDYEKVYQTEKTKEHKQLLKNAQLELKKSKRKDYYKILGVDKNASEDEIKKAYRKRALMHHPDRHSGASAEVQKEEEKKFKEVGEAFTILSDPKKKTRYDSGQDLDEEGMNMGDFDANNIFKAFFGGPGGFSFEASGPGNFYFQFG
# B8: Thyroid Hormone Receptor Alpha (protein, UniProt P63058 1-492)
# chain: MEQKPSKVECGSDPEENSARSPDGKRKRKNGQCPLKSSMSGYIPSYLDKDEQCVVCGDKATGYHYRCITCEGCKGFFRRTIQKNLHPTYSCKYDSCCVIDKITRNQCQLCRFKKCIAVGMAMDLVLDDSKRVAKRKLIEQNRERRRKEEMIRSLQQRPEPTPEEWDLIHVATEAHRSTNAQGSHWKQRRKFLPDDIGQSPIVSMPDGDKVDLEAFSEFTKIITPAITRVVDFAKKLPMFSELPCEDQIILLKGCCMEIMSLRAAVRYDPESDTLTLSGEMAVKREQLKNGGLGVVSDAIFELGKSLSAFNLDDTEVALLQAVLLMSTDRSGLLCVDKIEKSQEAYLLAFEHYVNHRKHNIPHFWPKLLMKEREVQSSILYKGAAAEGRPGGSLGVHPEGQQLLGMHVVQGPQVRQLEQQLGEAGSLRGPVLQHQSPKSPQQRLLELLHRSGILHSRAVCGEDDSSEASSLSSSSDTEDTEVCEDQAGKAASP
# Molecular target: PD-L1 with the TSS-AAA mutation in the cytoplasmic domain, tagged with GFP (mouse) (UniProt Q9EP73)
# Experiment: affinity purification with mass spectrometry; PD-L1-GFP immunoprecipitated from lysates of SVEC4-10 cells after sodium vanadate; peptides enriched for phosphopeptides (Fe-NTA) before LC-MS/MS; n = 3 samples per group
row,binding,Molecule
1,binds,"ATP Binding Cassette Subfamily F Member 1, phosphorylated (from UniProt Q6P542 1-837)"
2,binds,"Cordon-bleu Protein Like-1, phosphorylated (from UniProt Q3UMF0 1-1273)"
3,binds,"Scaffold Attachment Factor B2, phosphorylated (from UniProt Q80YR5 1-991)"
4,binds,"Rho Guanin nucleotide exchange factor 40, phosphorylated (from UniProt Q3UPH7 1-1517)"
5,binds,B1

# Molecular target: WT PD-L1 (programmed death ligand 1) tagged with GFP (mouse) (UniProt Q9EP73)
# Experiment: affinity purification with mass spectrometry; GFP-tagged PD-L1 precipitated from SVEC4-10 lysate overnight with GST-tagged anti-GFP nanobody on GST beads, washed 4x in TBS with 0.1% Tween-20; cells with or without sodium vanadate; in-gel trypsin digest, LC-MS/MS; N = 6 samples per cell type
row,Molecule,binding
1,B2,binds
2,B3,binds
3,B4,binds
4,B5,binds
5,B6,binds
6,B7,binds
7,B8,binds
